Article PMC6028546, “Control of mitotic chromosome condensation by the fission yeast transcription factor Zas1”
The comparison behind a weaker result is the experiment's own reference, which may not be listed here. Protein sequences can lack the tags named with them.

Test system: T1, Zas1 (short cDNA ORF, two zinc fingers) (Schizosaccharomyces pombe)
T1 sequence (looked up): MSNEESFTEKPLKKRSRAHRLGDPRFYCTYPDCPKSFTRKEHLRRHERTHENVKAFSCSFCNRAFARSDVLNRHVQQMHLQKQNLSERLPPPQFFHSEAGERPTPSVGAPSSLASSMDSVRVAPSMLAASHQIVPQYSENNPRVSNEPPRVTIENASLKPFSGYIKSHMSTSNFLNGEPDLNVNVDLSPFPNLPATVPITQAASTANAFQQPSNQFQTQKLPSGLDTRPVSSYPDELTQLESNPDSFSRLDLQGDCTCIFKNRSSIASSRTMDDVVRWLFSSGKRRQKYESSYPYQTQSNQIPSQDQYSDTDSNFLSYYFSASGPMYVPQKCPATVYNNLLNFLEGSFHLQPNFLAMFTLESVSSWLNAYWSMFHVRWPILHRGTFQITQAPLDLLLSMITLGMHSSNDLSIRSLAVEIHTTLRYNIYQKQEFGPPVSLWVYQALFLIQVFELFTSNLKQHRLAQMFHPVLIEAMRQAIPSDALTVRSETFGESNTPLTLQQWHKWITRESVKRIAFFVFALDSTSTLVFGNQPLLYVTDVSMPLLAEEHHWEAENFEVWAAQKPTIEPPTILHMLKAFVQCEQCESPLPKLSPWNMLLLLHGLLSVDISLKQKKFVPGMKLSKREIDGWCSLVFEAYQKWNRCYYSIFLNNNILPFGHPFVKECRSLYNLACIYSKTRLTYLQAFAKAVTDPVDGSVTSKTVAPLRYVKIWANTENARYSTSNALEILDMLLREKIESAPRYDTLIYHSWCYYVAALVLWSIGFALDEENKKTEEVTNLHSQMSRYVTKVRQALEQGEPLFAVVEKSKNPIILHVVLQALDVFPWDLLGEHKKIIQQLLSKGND
Experiment: EMSA
Conditions: 20 uM ZnCl2, 5 mM MgCl2; EMSA: 10 mM Tris-HCl pH 8.0, 125 mM NaCl, 5 mM MgCl2, 20 uM ZnCl2; 400 nM DNA, 0/200/400/800 nM Zas1; 90 min on ice; 1.8% agarose, Tris-acetate pH 8.7, 6 C; recombinant protein; residues 1-845; label: 5' 6-FAM on strand 1

“AAAGCCTCTGCGAAGGTCGTCTTTCTCTGCATAGATTATT (double strand) [Ppob1 mut]”: binds more weakly.

“AATGGACCTCTGCACAGGACATATAGGATGTGTTATTGT (double strand) [Pcnd1 mut]”: binds more weakly.
